We go through 17 molecules from article PMC1868777.

Protein sequences, listed by entry. Tags and fused reporters are not part of them. Lines headed by an entry give the natural chain unless they say otherwise; changes in a name come on top.
UniProt Q9VM45: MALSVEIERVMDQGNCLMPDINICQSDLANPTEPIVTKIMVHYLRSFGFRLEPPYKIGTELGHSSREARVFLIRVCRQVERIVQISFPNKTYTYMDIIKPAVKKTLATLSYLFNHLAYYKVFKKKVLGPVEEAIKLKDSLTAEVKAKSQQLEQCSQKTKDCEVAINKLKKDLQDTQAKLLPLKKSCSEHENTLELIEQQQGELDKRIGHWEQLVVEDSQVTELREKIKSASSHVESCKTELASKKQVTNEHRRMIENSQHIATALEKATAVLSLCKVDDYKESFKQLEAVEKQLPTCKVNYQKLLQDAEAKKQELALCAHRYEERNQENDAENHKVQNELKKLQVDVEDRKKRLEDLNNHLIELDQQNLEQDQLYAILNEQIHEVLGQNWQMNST
UniProt Q9VYB1: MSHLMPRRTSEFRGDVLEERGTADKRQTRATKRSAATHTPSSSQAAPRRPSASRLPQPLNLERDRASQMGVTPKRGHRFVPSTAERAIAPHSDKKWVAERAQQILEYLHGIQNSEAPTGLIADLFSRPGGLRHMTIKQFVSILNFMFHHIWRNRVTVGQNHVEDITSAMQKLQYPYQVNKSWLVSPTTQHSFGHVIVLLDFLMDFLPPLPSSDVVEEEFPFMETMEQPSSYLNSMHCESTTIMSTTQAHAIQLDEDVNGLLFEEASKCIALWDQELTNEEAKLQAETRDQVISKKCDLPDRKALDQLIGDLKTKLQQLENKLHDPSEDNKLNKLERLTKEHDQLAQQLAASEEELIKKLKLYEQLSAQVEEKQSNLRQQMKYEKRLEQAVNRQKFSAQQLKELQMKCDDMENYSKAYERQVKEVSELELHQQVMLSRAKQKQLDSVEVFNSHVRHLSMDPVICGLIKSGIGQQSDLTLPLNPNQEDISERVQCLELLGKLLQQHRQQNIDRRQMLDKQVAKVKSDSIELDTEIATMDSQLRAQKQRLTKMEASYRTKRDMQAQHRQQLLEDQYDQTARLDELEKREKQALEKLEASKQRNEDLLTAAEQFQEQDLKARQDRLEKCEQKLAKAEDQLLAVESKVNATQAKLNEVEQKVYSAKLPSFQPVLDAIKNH
UniProt Q9VS01: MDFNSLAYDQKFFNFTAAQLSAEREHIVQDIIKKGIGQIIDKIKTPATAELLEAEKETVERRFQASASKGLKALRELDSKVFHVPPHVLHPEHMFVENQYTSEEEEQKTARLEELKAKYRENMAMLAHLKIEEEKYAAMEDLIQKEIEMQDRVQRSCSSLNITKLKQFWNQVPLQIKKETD
UniProt Q7JZC9: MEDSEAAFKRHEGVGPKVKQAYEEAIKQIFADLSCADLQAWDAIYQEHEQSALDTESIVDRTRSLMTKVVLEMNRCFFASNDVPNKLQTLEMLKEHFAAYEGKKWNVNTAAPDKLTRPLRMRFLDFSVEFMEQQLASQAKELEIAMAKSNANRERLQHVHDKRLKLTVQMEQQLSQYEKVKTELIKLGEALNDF
UniProt Q8IPW3: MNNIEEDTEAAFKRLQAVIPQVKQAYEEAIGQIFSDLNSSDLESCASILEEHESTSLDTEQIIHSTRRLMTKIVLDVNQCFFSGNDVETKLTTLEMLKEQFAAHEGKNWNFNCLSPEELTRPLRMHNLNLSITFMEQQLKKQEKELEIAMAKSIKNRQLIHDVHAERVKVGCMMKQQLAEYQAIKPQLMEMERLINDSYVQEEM
UniProt Q9VYX4: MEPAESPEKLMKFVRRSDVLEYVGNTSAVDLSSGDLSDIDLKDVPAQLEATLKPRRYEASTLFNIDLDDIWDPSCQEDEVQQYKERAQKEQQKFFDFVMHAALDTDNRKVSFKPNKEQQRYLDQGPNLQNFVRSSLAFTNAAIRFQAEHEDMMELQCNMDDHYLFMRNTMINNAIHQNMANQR
UniProt A1ZB76: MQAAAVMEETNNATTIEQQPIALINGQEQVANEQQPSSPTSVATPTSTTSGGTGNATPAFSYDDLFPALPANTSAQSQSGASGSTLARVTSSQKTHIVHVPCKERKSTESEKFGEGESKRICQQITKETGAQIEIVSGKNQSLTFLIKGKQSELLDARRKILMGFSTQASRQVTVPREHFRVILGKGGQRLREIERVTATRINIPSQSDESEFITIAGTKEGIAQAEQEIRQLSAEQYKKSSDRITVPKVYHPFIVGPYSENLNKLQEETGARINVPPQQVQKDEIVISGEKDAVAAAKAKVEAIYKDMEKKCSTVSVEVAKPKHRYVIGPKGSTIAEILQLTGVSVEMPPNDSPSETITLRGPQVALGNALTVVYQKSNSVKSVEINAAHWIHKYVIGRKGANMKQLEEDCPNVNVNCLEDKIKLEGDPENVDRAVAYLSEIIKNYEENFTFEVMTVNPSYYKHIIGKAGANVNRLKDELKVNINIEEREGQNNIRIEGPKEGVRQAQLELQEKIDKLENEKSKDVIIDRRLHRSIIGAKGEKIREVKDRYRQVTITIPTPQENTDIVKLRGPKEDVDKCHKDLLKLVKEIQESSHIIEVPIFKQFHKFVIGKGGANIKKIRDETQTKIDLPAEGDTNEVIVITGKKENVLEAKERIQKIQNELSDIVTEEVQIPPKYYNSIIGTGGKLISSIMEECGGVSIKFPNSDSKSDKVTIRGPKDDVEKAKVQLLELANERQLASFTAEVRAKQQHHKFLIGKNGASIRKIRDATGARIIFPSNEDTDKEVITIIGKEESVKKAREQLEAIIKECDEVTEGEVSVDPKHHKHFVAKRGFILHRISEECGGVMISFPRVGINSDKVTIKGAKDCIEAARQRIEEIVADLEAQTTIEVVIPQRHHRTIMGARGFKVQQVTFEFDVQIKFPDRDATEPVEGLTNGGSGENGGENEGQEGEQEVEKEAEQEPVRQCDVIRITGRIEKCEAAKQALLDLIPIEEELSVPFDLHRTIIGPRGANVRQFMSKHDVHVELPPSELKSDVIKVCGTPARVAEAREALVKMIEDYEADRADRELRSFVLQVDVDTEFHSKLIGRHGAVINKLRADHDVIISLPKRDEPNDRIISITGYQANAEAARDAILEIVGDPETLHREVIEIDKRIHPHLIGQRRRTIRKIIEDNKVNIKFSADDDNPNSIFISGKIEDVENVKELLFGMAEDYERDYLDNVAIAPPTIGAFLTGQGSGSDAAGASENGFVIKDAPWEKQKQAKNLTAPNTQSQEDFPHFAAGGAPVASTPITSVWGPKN
UniProt Q9VCU6: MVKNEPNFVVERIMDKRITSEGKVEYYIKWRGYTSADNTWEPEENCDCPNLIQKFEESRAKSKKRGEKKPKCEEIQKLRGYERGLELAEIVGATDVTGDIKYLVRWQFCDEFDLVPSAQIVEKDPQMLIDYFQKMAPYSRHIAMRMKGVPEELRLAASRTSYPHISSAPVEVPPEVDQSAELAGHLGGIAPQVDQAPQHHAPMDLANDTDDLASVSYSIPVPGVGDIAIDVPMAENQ
UniProt Q9VWS1: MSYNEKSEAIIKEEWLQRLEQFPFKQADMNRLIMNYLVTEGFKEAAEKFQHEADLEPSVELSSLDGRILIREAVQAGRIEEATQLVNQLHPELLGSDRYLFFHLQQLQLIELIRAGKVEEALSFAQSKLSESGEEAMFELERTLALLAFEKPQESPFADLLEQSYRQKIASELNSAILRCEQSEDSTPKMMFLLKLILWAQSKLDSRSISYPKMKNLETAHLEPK
UniProt P45889: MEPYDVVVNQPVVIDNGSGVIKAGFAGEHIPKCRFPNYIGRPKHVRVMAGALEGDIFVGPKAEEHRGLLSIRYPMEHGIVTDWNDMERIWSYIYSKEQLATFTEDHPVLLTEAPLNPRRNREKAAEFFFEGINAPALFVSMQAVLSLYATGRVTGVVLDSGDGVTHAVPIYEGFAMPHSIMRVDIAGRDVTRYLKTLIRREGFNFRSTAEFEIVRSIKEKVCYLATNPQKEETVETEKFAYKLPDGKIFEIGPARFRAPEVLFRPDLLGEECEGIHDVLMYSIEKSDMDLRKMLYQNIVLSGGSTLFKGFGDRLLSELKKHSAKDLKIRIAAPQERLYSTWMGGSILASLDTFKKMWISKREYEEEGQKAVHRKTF
UniProt Q9W2N0: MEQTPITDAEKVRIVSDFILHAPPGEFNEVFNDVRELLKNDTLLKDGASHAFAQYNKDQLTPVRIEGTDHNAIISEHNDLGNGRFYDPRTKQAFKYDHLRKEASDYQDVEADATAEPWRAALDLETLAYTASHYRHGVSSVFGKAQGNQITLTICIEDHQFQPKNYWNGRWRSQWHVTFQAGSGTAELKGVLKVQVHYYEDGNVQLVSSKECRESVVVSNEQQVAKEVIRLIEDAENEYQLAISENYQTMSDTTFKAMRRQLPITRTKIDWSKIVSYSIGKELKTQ
UniProt Q9V9W7: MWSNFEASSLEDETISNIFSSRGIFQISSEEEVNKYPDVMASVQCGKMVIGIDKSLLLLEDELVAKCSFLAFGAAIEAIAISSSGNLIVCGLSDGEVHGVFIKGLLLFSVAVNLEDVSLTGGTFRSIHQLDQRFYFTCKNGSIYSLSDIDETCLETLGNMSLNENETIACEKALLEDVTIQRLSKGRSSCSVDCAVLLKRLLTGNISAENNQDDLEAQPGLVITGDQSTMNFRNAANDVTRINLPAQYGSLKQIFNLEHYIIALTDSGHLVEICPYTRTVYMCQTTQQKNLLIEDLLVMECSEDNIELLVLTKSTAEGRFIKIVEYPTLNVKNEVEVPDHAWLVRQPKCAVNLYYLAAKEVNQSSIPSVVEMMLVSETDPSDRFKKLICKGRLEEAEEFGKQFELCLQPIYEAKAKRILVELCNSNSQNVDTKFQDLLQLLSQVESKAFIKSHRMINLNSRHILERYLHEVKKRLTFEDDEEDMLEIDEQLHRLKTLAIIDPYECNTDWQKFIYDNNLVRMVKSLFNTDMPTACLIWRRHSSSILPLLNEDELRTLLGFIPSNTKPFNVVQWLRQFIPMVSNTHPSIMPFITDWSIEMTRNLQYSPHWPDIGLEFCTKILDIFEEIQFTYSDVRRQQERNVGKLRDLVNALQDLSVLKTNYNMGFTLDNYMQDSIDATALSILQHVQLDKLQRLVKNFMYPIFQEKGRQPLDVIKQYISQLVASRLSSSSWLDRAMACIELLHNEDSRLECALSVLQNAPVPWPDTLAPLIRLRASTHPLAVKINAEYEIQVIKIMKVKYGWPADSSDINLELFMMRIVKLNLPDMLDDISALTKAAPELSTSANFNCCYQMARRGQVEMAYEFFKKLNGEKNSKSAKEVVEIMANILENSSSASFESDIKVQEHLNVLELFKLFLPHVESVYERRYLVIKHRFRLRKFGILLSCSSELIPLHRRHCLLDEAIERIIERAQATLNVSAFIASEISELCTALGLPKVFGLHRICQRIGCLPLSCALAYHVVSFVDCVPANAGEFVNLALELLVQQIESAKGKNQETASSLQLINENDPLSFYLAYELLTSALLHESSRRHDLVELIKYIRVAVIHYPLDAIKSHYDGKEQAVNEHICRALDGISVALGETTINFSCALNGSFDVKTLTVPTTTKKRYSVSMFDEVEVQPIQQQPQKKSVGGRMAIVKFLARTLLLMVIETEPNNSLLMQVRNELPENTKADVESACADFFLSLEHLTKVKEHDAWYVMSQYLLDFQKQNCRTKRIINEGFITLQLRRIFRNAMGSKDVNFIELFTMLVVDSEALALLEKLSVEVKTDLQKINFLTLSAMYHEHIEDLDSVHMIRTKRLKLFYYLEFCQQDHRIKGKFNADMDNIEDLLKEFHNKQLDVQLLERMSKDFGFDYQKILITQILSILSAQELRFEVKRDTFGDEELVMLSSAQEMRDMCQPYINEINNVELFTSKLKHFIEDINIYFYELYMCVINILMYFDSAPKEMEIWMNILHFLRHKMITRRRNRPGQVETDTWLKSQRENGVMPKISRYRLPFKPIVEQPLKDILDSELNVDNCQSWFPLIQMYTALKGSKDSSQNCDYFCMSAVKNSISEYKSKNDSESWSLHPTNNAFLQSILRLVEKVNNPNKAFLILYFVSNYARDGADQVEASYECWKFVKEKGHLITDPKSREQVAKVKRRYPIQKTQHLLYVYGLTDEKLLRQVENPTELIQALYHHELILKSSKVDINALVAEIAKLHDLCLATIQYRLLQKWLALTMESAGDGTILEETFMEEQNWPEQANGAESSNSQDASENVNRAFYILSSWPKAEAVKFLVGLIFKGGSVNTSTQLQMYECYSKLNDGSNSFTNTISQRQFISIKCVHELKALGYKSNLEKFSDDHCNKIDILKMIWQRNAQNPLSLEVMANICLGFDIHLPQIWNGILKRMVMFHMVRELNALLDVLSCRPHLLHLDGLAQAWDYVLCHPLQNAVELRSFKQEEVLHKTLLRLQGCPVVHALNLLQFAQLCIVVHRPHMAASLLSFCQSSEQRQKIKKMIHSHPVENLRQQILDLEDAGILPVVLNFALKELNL

Holding throughout (test): affinity purification with mass spectrometry; Protein A- or TAP-tagged bait stably expressed in D-mel cells; whole cell extracts of asynchronous cultures; single step on Dynabeads with rabbit IgG, 2-4 hours; buffer A (75 mM HEPES pH7.5, 150 mM KCl, 1.5 mM EGTA, 1.5 mM MgCl2, 7.5% glycerol, 0.1% NP40, Benzonase), six washes; elution with 1 M NH4OH; SDS-PAGE bands analysed by LC-MS/MS (MASCOT)

The target in assay [1] is dmNuf2-PrA (Drosophila melanogaster) (UniProt Q9VM45).
In assay [2] the target is Protein A::dmNdc80 (Drosophila melanogaster) (UniProt Q9VYB1).
Assay [3] concerns the target dmMis12-PrA (Drosophila melanogaster) (UniProt Q9VS01).
Assay [4] addresses dmNnf1R-2::protein A (Drosophila melanogaster) (UniProt Q7JZC9).
Assay [5] addresses dmNuf2-PrA (Drosophila melanogaster) (UniProt Q9VM45). The source holds these as a separate data set.
For assay [6], the target named is dmMis12-PrA (Drosophila melanogaster) (UniProt Q9VS01). The source holds these as a separate data set.
The target of assay [7] is Protein A::dmNdc80 (Drosophila melanogaster) (UniProt Q9VYB1). The source holds these as a separate data set.

Read-outs that look alike come from different tables or passages of the source. No constants are given. Whether binding was seen depends on the method and setting. Binding seen in cells or lysates may run through a third protein. These calls come from enrichment with a bait or labelling near it, and not all partners need be listed.

dmNnf1R-1 (from UniProt Q8IPW3): the binding entry in assay [1], in assay [2] and in assay [3] was “binds” in each case.

With dmNsl1R (from UniProt Q9VYX4), the binding entry in assay [1], in assay [2] and in assay [3] was “binds” in each case.

As for DDB-1 (from UniProt Q9XYZ5 1-1140), the binding result in assay [2] and in assay [4] was “binds” in each case.

Take DDP1 (from UniProt A1ZB76): the binding entry in assay [1], in assay [2] and in assay [3] was “binds” in each case.

dmNnf1R-2 (from UniProt Q7JZC9): the binding entry in assay [1], in assay [2] and in assay [3] was “binds” in each case.

For the molecule dmSpc105R (from UniProt Q9VPB2), the binding entry in assay [1], in assay [2] and in assay [3] was “binds” each time.

As for HP1c (from UniProt Q9VCU6), the binding entry in assay [2] was “binds”.

Regarding CG6617 (from UniProt Q9VWS1), the binding result in assay [2] is “binds”.

For the molecule Arp87C (from UniProt P45889 1-376), the binding result in assay [1] was “binds”.

In the case of CG10540 (from UniProt Q9W2N0 1-286), the binding entry in assay [2] was “binds”.

Consider Rod (from UniProt Q9V9W7), for which the binding result in assay [3] and in assay [4] was “binds” each time.

dmNdc80 (from UniProt Q9VYB1): the binding entry in assay [1] and in assay [3] was “binds” in each case.

With dmNuf2 (from UniProt Q9VM45), the binding result in assay [2] and in assay [3] was “binds” in each case.

B1: dmSpc25R/Mitch (protein, UniProt Q9V3V7 1-222)
chain: MAIIMTESSYERRVKALYEKQIHMEALEAKFIKKVFKFNSNLLDVKEAASRHQRKVGKLQKVLMERREELDKRVSFIEELDRELEATKLHNLAMKDWFKQQKMLAKQRKNEIMESIHTLSKTTRTYINQEALPARVKGVTVLRGDKRDQLIPFDLKATDVEGLDSLCQHLESLNVDVAQWQQLISLAMDMAMESRAPTTPPKEADNCKSIIEIDLTSPMSHT
Take B1: the binding result in assay [5] and in assay [6] was “binds” in each case.

B2: CG7611 (protein, UniProt Q7K0L4 1-630)
chain: MQSTSSTSSGSCSRPLEGSTLNSGGSAENVARDGGSGDDSVGIGDENPSGSSAATNGHDSKHNGFIVNNNGSSSRIVDGENNRENTSCSGVQLDKSNQEIIRLIGQYLHDVGLDKSVQTLMLESGCYLEHPSATKFREHVLMGDWSKADSDLKDLEPLIDNGKLATITEMKFILLEQKYLEHLDDGNPLDALHVLRSELTPLQHNITRVHQLSSYMMCSTNQDLYQRAKWEGKGILSRALVMERLQTFMPPSVMMSPRRLRTLLQQAVELQSQHCPCHDMAWETNLETVSLLTDHCCTTDGFPMQTIQILTDHCDEVWFCKFSPDGLKLATGSKDSTVIIWDVDPYKLTLKHRRVLDGQAQLSVSFVSWSPDSKLILVGGTEDSHELYIWNVDDGKLVVKFSQSLEDSLACGAFSRDGARFVCGGQKGQLYLCDLNGTIVDSWEGVRVNSIAFRADNKTILAADNHYRIRGYNFDSPRSDFDILREPHPIMTFSINSADRLALLNVSNQGLHLWDIEDKCLVRRFQGIRQSNFAIHSCFGGVNESFVASGSEDKVVYIWHIKREEPLAKLAGHTKTVNCVSWNPVYPSLLASASDDATVRIWGPKPNGSSATTESDDCSSSSSSSSWNMT
B2: the binding entry in assay [5] and in assay [7] was “binds” throughout.

B3: FKBP39 (protein, UniProt P54397 1-357)
chain: MSMFWGLNMKPERKYSQTIIKSFHISGVALDKGQEAKLYLAAEKQEYIVATVTKAIPQVALDLNFSKGDRIMFYTAGDASVSLLGYLHDIDSEDDEDDDQMTIENLLNSKAIKNSKKSEDDEDENESGEEDEEDTDDDSQIIEEYESFLENGEEEDDDDVDEDNEESGEEDEQDSDDSEAEEEQPKAKVAKLSPGASAKKSGKEQNGVAKKEEAKQQQKKKEKPEAKKEQPKAKEPAKQQPASKDPRTITGGVKIVDQVVGKGEEAKQGKRVSVYYIGRLQSNNKTFDSLLKGKPFKFALGGGEVIKGWDVGVAGMKVGGKRVITCPPHMAYGARGAPPKIGPNSTLVFEVELKAVH
As for B3, the binding entry in assay [5], in assay [7] and in assay [6] was “binds” throughout.

B4: Topoisomerase II (protein, UniProt P15348 1-1447)
chain: MENGNKALSIEQMYQKKSQLEHILLRPDSYIGSVEFTKELMWVYDNSQNRMVQKEISFVPGLYKIFDEILVNAADNKQRDKSMNTIKIDIDPERNMVSVWNNGQGIPVTMHKEQKMYVPTMIFGHLLTSSNYNDDEKKVTGGRNGYGAKLCNIFSTSFTVETATREYKKSFKQTWGNNMGKASDVQIKDFNGTDYTRITFSPDLAKFKMDRLDEDIVALMSRRAYDVAASSKGVSVFLNGNKLGVRNFKDYIDLHIKNTDDDSGPPIKIVHEVANERWEVACCPSDRGFQQVSFVNSIATYKGGRHVDHVVDNLIKQLLEVLKKKNKGGINIKPFQVRNHLWVFVNCLIENPTFDSQTKENMTLQQKGFGSKCTLSEKFINNMSKSGIVESVLAWAKFKAQNDIAKTGGRKSSKIKGIPKLEDANEAGGKNSIKCTLILTEGDSAKSLAVSGLGVIGRDLYGVFPLRGKLLNVREANFKQLSENAEINNLCKIIGLQYKKKYLTEDDLKTLRYGKVMIMTDQDQDGSHIKGLLINFIHTNWPELLRLPFLEEFITPIVKATKKNEELSFYSLPEFEEWKNDTANHHTYNIKYYKGLGTSTSKEAKEYFQDMDRHRILFKYDGSVDDESIVMAFSKKHIESRKVWLTNHMDEVKRRKELGLPERYLYTKGTKSITYADFINLELVLFSNADNERSIPSLVDGLKPGQRKVMFTCFKRNDKREVKVAQLSGSVAEMSAYHHGEVSLQMTIVNLAQNFVGANNINLLEPRGQFGTRLSGGKDCASARYIFTIMSPLTRLIYHPLDDPLLDYQVDDGQKIEPLWYLPIIPMVLVNGAEGIGTGWSTKISNYNPREIMKNLRKMINGQEPSVMHPWYKNFLGRMEYVSDGRYIQTGNIQILSGNRLEISELPVGVWTQNYKENVLEPLSNGTEKVKGIISEYREYHTDTTVRFVISFAPGEFERIHAEEGGFYRVFKLTTTLSTNQMHAFDQNNCLRRFPTAIDILKEYYKLRREYYARRRDFLVGQLTAQADRLSDQARFILEKCEKKLVVENKQRKAMCDELLKRGYRPDPVKEWQRRIKMEDAEQADEEDEEEEEAAPSVSSKAKKEKEVDPEKAFKKLTDVKKFDYLLGMSMWMLTEEKKNELLKQRDTKLSELESLRKKTPEMLWLDDLDALESKLNEVEEKERAEEQGINLKTAKALKGQKSASAKGRKVKSMGGGAGAGDVFPDPDGEPVEFKITEEIIKKMAAAAKVAQAAKEPKKPKEPKEPKVKKEPKGKQIKAEPDASGDEVDEFDAMVEGGSKTSPKAKKAVVKKEPGEKKPRQKKENGGGLKQSKIDFSKAKAKKSDDDVEEVTPRAERPGRRQASKKIDYSSLFSDEEEDGGNVGSDDDGNASDDDSPKRPAKRGREDESSGGAKKKAPPKKRRAVIESDDDDIEIDEDDDDDSDFNC
As to B4, the binding result in assay [7] is “binds”.
